Source: ChEMBL document CHEMBL3988442, “University of Dundee, Small-Polar-MMV Screening Library” (2021).

By UniProt entry, the sequences of proteins in these tests, tags left out.
UniProt E9BF75, entry or part of it: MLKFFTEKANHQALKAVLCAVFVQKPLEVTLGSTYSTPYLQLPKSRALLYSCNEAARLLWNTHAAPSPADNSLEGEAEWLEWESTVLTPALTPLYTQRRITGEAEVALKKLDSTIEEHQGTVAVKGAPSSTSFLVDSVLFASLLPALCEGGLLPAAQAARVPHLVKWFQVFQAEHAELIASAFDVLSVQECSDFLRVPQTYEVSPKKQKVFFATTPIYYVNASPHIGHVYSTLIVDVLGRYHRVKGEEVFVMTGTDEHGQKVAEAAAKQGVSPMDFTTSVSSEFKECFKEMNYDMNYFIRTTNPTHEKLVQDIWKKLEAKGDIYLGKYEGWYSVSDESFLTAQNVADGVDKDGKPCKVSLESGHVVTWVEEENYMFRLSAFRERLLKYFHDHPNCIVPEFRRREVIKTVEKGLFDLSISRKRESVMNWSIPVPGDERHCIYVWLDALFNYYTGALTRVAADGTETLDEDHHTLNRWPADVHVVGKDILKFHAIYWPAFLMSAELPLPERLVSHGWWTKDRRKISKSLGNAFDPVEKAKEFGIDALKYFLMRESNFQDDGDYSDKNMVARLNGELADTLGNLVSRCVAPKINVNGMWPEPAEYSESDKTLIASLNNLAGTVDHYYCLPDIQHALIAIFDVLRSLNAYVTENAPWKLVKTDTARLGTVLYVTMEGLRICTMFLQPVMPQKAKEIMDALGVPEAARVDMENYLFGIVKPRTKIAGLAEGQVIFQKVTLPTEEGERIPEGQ

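Primary screen of methionyl-tRNA synthetase; the read-out is not stated. Target: Methionyl-tRNA synthetase (putative), Leishmania donovani (UniProt E9BF75). The test concentration is not given. The values are filed as inhibition. Size under these conditions: about 68,000 compounds, about 24 of them at 50% or above in at least one test.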

All values are in %. The controls that fix the scale are not given in the record; negative values are as filed. Compounds were drawn at random from those tested, without regard to their results.

Result for COCCOc1cccc(C(=O)N2CCCCC2c2nccs2)c1 (stereo not drawn) was 18.1%. With COc1nccc(N2CC[C@H](CO)[C@@H](O)C2)c1C#N the screen gave 6.497%. Cc1cnn(CC2CCCN2C(=O)c2c(C)noc2C(C)C)c1 (stereo not drawn) read 12%. O=C(NCCc1cc(N2CCOCC2)nc(NC2CC2)n1)C1CC1 read 11.05%. For Cc1cc(C)n(CC2CN(CCOc3ccccc3C#N)CCO2)n1 (stereo not drawn) the result was 18.86%. With Cc1ccc(-n2ncc3c2CCCC3N)cc1C (stereo not drawn) the screen gave 13.55%.

O=C(c1cccc(Cn2ccnc2)c1)N1CCCC(n2cccn2)C1 (stereo not drawn) read 18.7%. For CCc1nccn1CCC(=O)N1CCCC1c1ccc(F)cc1 (stereo not drawn) the result was 2.338%. CC(C)c1nnc2n1CCN(CC(=O)N1CCc3sccc3C1)C2 read 19.13%. CC1CCCCN1C(=O)c1ccc(Br)s1 (stereo not drawn) read 5.263%. Cn1ncc2c1C(COCC1CC1)CN(C(=O)c1ccoc1)C2 (stereo not drawn) read 4.372%. For Cn1nnc2c1CCN(C(C(=O)N1CCCCC1)c1ccccc1)C2 (stereo not drawn) the result was 15.04%.

Result for c1cnc(N2CCC(C3CCN(CCCn4cccn4)C3)CC2)nc1 (stereo not drawn) was 6.69%. CCCC(C)CS(=O)(=O)NCc1cccnc1N(C)C (stereo not drawn) gave 8.397%. CN(C)C(=O)N1C[C@H]2CC[C@@H]1CN(C1Cc3ccccc3C1)C2 read 6.406%. With CC(=O)N1CC(=O)N(c2cnn(C)c2)CC12CCN(Cc1ccoc1)C2 (stereo not drawn) the screen gave 14.29%. COc1cc2nc(NCCNS(C)(=O)=O)cc(C)c2cc1OC read 5.943%. Result for CN(C)C(=O)CN1CCCN(CC2CCOc3ccccc3C2)CC1 (stereo not drawn) was 8.602%.

Result for CCc1nc(CNc2cc(Cl)ccc2OCC2CCCO2)no1 (stereo not drawn) was 11.41%. Result for O=C(NCCc1ccccc1)N1CCC(C2OCCO2)CC1 was 10%. With COCc1nc(C(=O)N2CCCCC2Cn2cc(C)cn2)cs1 (stereo not drawn) the screen gave -4.167%. Cc1cc(CN2CCN(C(=O)c3sccc3C3CC3)CC2)no1 read 24.31%. With CC[C@@H](C)[C@@H](N)C(=O)Nc1cccc(-c2cnc(NCCO)nc2)c1 the screen gave 8.981%. With O=C(CC(F)(F)F)N1CCC2(CCCN(c3nncs3)C2)C1 (stereo not drawn) the screen gave 19.05%.

For Cc1n[nH]c(=O)c2c(NC(=O)CN3CCOCC3)oc(C)c12 the result was 10.97%. With CCc1nc2n(n1)CC(NCCc1cccs1)CC2 (stereo not drawn) the screen gave 16.03%. For Cc1ccc(C(C(=O)N2CCC(Cc3noc(C)n3)CC2)N(C)C)cc1 (stereo not drawn) the result was 19.87%. CNC(=O)NC(C)c1c(F)cccc1Cl (stereo not drawn) read 15.57%. O=C(NCc1cn2cccnc2n1)C1CC(=O)N(Cc2ccccn2)C1 (stereo not drawn) read 17.09%. CCOc1ccc(CN2C(=O)CC3(CCCC3)C2=O)nc1 read -7.246%.

Result for COCc1ccccc1NC(=O)CCNC(=O)c1ccoc1 was 7.062%. With COc1ccc(CN(C)Cc2c(C)noc2C)c(Br)c1OC the screen gave 8.13%. Cc1ccc(CN2CCC(n3cc(CN4CCC(O)CC4)nn3)CC2)s1 read 8.591%. Result for CN(Cc1ccc2c(c1)OCO2)C(=O)Cn1cccnc1=O was 6.069%. Cc1cnn(CC2CCCN2C(=O)c2sccc2C#N)c1 (stereo not drawn) gave 6.62%. With CSc1ncccc1C(=O)N(C)CCc1scnc1C the screen gave 12.29%.

For FC(F)(F)Cn1cc(NCc2cscn2)cn1 the result was 9.946%. COC(=O)c1cccc(C(=O)N2CCN(c3ccccc3F)CC2)n1 read 9.804%. O=C(N1CCOCC1)N1CCN(CC(O)c2ccc(F)cc2)CC1 (stereo not drawn) gave 7.263%. For CC(C)NC(=O)N1CCOC2(CCCN(c3cccc(C#N)c3)C2)C1 (stereo not drawn) the result was 13.59%. Cc1cc2nc(CO[C@H]3CN(C4CCN(C)CC4)C[C@H]3F)[nH]c2cc1C gave 6.441%. Cc1cc(C(=O)Nc2ccc(OCCN3CCN(C)CC3)cc2)[nH]n1 read 13.69%.

CN(C)C(=O)CN1CCN(C(=O)c2cnn(-c3ccccc3Cl)c2)CC1 read 21.65%. For CN1CC(=O)N(c2cccc(F)c2)CC12CCN(Cc1cnn(C)c1)C2 (stereo not drawn) the result was 6.875%. With Cn1cc(C(=O)N2CCCCC2CCc2ccc(O)cc2)cn1 (stereo not drawn) the screen gave 9.429%. CN(C)[C@@H]1CCN(C(=O)Cc2cccs2)[C@H]1Cc1cnn(C)c1 read 6.965%. COCCCNC(=O)Cn1nnc(-c2cc3ccccc3o2)n1 read 18.13%.

Once more, the final 3:

structure	inhibition
Cn1cc(C(=O)N2CCCCC2CCc2ccc(O)cc2)cn1 (stereo not drawn)	9.429%
CN(C)[C@@H]1CCN(C(=O)Cc2cccs2)[C@H]1Cc1cnn(C)c1	6.965%
COCCCNC(=O)Cn1nnc(-c2cc3ccccc3o2)n1	18.13%